Results of single-concentration screens

The chains behind the UniProt entries cited, without tags or fusion partners. Residues count along the entry.
UniProt P9WNZ1, whole entry: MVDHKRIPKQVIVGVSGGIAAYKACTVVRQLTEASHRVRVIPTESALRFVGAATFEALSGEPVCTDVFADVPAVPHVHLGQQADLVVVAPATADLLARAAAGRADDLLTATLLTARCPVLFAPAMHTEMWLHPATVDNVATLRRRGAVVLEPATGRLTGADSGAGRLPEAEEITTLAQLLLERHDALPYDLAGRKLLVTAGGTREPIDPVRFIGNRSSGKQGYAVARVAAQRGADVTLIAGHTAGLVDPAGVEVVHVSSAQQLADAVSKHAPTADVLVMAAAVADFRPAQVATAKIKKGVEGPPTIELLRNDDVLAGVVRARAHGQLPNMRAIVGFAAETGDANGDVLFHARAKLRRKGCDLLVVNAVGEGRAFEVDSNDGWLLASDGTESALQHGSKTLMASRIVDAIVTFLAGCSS
UniProt Q4DA54, 1-478: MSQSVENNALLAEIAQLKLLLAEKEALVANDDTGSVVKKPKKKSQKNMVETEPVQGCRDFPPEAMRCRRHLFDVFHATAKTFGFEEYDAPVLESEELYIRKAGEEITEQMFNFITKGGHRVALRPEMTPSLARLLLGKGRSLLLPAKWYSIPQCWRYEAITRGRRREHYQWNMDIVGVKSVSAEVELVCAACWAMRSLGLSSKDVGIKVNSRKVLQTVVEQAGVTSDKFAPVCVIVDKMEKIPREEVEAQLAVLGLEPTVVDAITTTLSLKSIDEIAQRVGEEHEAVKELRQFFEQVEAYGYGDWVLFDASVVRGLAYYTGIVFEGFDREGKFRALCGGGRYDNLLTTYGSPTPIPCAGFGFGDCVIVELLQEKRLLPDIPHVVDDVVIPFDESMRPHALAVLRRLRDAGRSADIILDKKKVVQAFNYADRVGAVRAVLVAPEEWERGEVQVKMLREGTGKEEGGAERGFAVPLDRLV

Data taken from ChEMBL document CHEMBL3988442, “University of Dundee, Small-Polar-MMV Screening Library” (2021).

Results are given as percent effect. The controls that fix the scale are not given in the record; negative values are as filed. This is an unselected part of the compounds tested. Two or more numbers in one place are separate tests of the same structure; such repeats can differ widely.

CoaBC: 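Coenzyme A biosynthesis protein CoaBC, Mycobacterium tuberculosis (UniProt P9WNZ1). Enzyme assay of CoaBC with a phosphate dye (Biomol Green) read at 650 nm. Concentration: 30 µM. Direction is inferred from only a few compounds that gave an IC50; most scored high, so higher reads as stronger inhibition. Most strong results did not repeat in a second test. Size under these conditions: about 67,000 compounds, about 40 of them at 50% or above in at least one test.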
TcHisRS: 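Enzyme assay of histidyl-tRNA synthetase; the read-out is not stated. Target: Histidine-tRNA ligase, Trypanosoma cruzi CL Brener (UniProt Q4DA54). Concentration: 30 µM. Higher reads as stronger inhibition (inferred: compounds with an IC50 in retests scored well above the rest). Of about 69,000 compounds tested this way, about 31 (0.045%) reached 50% or more in at least one test.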

With O=S(=O)(c1ccc(Cl)s1)N1CCCC(c2ncc[nH]2)C1 (stereo not shown) the screen gave CoaBC: -7.923%; TcHisRS: 2.273%.
With CC(=O)N1CCC(Cc2cnc(-n3ccnc3)cn2)CC1 the screen gave CoaBC: 2.433%; TcHisRS: 5.97%.
With CCN1CCNC(=O)C12CCN(C(=O)Cc1ccccn1)CC2 the screen gave CoaBC: 1.576%; TcHisRS: 10.61%.
With Cc1cnc(C)c(-c2cccc(-c3ccn(CCN4CCCC4)n3)c2)n1 the screen gave CoaBC: 20.6% and 26.46%; TcHisRS: 31.4%.
With CCc1cnc(C)nc1NCc1nc(COC)no1 the screen gave CoaBC: 5.161%; TcHisRS: 0.4926%.
With CCCC(=O)NC1CCCN(C(=O)c2ccc(C)nc2)C1 (stereo not shown) the screen gave CoaBC: -3.532%; TcHisRS: 1.786%.
With COCCN(Cc1ccc(C)cc1)Cc1c[nH]cn1 the screen gave CoaBC: 4.435%; TcHisRS: 0.5587%.
With NC(=O)N1CCC2(CCN(C(=O)c3cccnc3)CC2)C1 the screen gave CoaBC: 1.975%; TcHisRS: 4.233%.
With CC(=O)N1C[C@H]2CCCN(c3ncc(C)cn3)[C@H]2C1 the screen gave CoaBC: 12.5%; TcHisRS: 3.448%.
With CSCCC(=O)NCc1cc2n(n1)CCCN(C1CCCCC1)C2 the screen gave CoaBC: -3.008%; TcHisRS: 0.5025%.
With c1ccc(-c2nc(CNC3CCc4ncnn4C3)no2)cc1 (stereo not shown) the screen gave CoaBC: 4.47%; TcHisRS: 5.78%.
With O=C(NCCN1CCOCC1)c1ccc(-c2ccccc2)[nH]c1=O the screen gave CoaBC: 1.653%; TcHisRS: 4.891%.
With Cc1nc(CN2C(=O)COC3(CCN(C(N)=O)CC3)C2C)cs1 (stereo not shown) the screen gave CoaBC: 7.27%; TcHisRS: 8.04%.
With CS(=O)(=O)C1=C(O)C(=O)N(c2ccccc2)C1c1ccccc1 (stereo not shown) the screen gave CoaBC: 3.8%; TcHisRS: 3.077%.
With O=C(NCc1cccc(Cl)c1)C1=NOC2(CCNC2)C1 (stereo not shown) the screen gave CoaBC: -18.49%; TcHisRS: 0.8264%.
With CCNC(=O)C1CCN(Cn2nc(-c3ccccc3)oc2=O)CC1 the screen gave CoaBC: 5.968%; TcHisRS: 6.548%.
With Cn1nc(CN2CCCC2)c2c1CN(C(=O)Nc1cccc(F)c1)CC2 the screen gave CoaBC: -47.08%; TcHisRS: 9.091%.
With CC(C)c1nc(-c2cc(C(=O)NCCN(C)C)c3ccccn23)cs1 the screen gave CoaBC: -56.25%; TcHisRS: 5.882%.
With CN1CCN(Cc2cccnc2)C(=O)C12CCN(Cc1ccco1)CC2 the screen gave CoaBC: 6.306%; TcHisRS: 5.825%.
With CCc1nc2n(n1)CC(NCc1nc(C)c(C)o1)CC2 (stereo not shown) the screen gave CoaBC: -3.727%; TcHisRS: -14.87%.
With O=C(c1ccccn1)N1CCC2(CC1)COC(COCC1CC1)C2 (stereo not shown) the screen gave CoaBC: 1.681%; TcHisRS: 10.74%.
With Cn1nc(CNC(=O)C2CCN(S(C)(=O)=O)CC2)cc1C1CC1 the screen gave CoaBC: 0.1203%; TcHisRS: 1.508%.
With CC(C)N1CCC(NC(=O)NCCC(=O)NCc2ccccc2)C1 (stereo not shown) the screen gave CoaBC: -4.214%; TcHisRS: 5.051%.
With Cc1noc(C)c1CN1CCN(Cc2nccn2C)CC1 the screen gave CoaBC: 4.042%; TcHisRS: 1.887%.
With COc1ccc(F)cc1CSCC(=O)N(CCC#N)CCC#N the screen gave CoaBC: -0.9153%; TcHisRS: 8.287%.
With Cc1cnn(CCNCc2c(C)nn(C)c2Cl)c1 the screen gave CoaBC: -1.24%; TcHisRS: 10%.
With COc1c(C2CCCN2Cc2nccn2C)c(C)nn1C (stereo not shown) the screen gave CoaBC: 3.213%; TcHisRS: 4.255%.
With CCC(Nc1nc(C)nc2onc(C)c12)c1cccs1 (stereo not shown) the screen gave CoaBC: 1.118%; TcHisRS: 0.9662%.
With CNC(=O)CC1CC2(CCN(Cc3nccs3)CC2)c2ccccc21 (stereo not shown) the screen gave CoaBC: 8.903%; TcHisRS: 0.5348%.
With C=C(Cl)CN(C)C1CCN(CCc2ccccn2)CC1 the screen gave CoaBC: 4.592%; TcHisRS: 4.094%.
With Cn1cccc1CN1CCC2(CC1)CN(c1ccccc1)C(=O)CO2 the screen gave CoaBC: 1.131%; TcHisRS: 20.1%.
With COC(=O)CC(NC(=O)c1cccc(N2CCCC2=O)c1)c1cccs1 (stereo not shown) the screen gave CoaBC: 7.661%; TcHisRS: -1.676%.
With Cc1cc(F)ccc1S(=O)(=O)NCc1cccc(C(=O)N2CCCC2)c1 the screen gave CoaBC: 8.205%; TcHisRS: -1.887%.
With O=C(c1ccc(-n2cccn2)cc1Cl)N1CCCC(O)(CO)C1 (stereo not shown) the screen gave TcHisRS: 7.006%.
With Cc1ccnc(C(NC(=O)c2ccc(O)nc2C)C2CC2)n1 (stereo not shown) the screen gave CoaBC: -49.58%; TcHisRS: 16.67%.
With Cn1cc(CN2CCc3nc(-c4ccccn4)nc(O)c3C2)cn1 the screen gave CoaBC: 0.5181%; TcHisRS: -0.5464%.
With CC(C)c1cc(O)nc(C2CCCN2C(=O)C2CC2)n1 (stereo not shown) the screen gave CoaBC: 7.299%; TcHisRS: 5.97%.
With Cc1cc(N2CCCC(c3n[nH]c4ncccc34)C2)ncn1 (stereo not shown) the screen gave CoaBC: 3.155%; TcHisRS: -5.495%.
With O=C(NCC(=O)N1CCCC(c2ccccc2)CC1)c1ccoc1 (stereo not shown) the screen gave CoaBC: -7.507%; TcHisRS: 0.8547%.
With Cc1cc2ncn(C(=O)N3CCCCC3)c2cc1C the screen gave CoaBC: -3.313%; TcHisRS: 6.977%.
With CCOC1COC2(CCN(CC3CC3)CC2)C1 (stereo not shown) the screen gave CoaBC: 0.1238%; TcHisRS: 0.5025%.
With O=C(CN1CCN(c2ncccn2)[C@@H]2CS(=O)(=O)C[C@@H]21)N1CCCCC1 the screen gave CoaBC: 9.091%; TcHisRS: 1.622%.
With Cc1c(CNC(=O)NCc2cccc(-n3cncn3)c2)cnn1C the screen gave CoaBC: -1.717%; TcHisRS: 3.488%.
With Cc1ccc(N2CCO[C@H]3CN(Cc4ccccn4)C[C@H]32)nn1 the screen gave CoaBC: 3.807%; TcHisRS: 0.9852%.

Once more, the final 4:

- CCOC1COC2(CCN(CC3CC3)CC2)C1 (stereo not shown) | CoaBC: 0.1238%; TcHisRS: 0.5025%
- O=C(CN1CCN(c2ncccn2)[C@@H]2CS(=O)(=O)C[C@@H]21)N1CCCCC1 | CoaBC: 9.091%; TcHisRS: 1.622%
- Cc1c(CNC(=O)NCc2cccc(-n3cncn3)c2)cnn1C | CoaBC: -1.717%; TcHisRS: 3.488%
- Cc1ccc(N2CCO[C@H]3CN(Cc4ccccn4)C[C@H]32)nn1 | CoaBC: 3.807%; TcHisRS: 0.9852%